Measured data: PubChem BioAssay AID1508597 (Cure First, 2020)
Shown is a random part of the about 2,100 reagents, in one setting of the screen. 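Calls flag viability under 80% in either arm, not effects specific to rucaparib; the reference for percent is not stated.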 A reagent listed more than once was tested more than once; the source does not tell the runs apart. Not given: the 100% reference.

- Screen: 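Genes whose silencing sensitises or protects ovarian cancer cells against rucaparib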 (primary screen)
- Cell system: human ovarian carcinoma lines grown from tumours: OCI-P5x (papillary serous) and OCI-C5x (clear cell)
- Reagent: siRNA pool against human genes, 1.25 pmol siRNA per well
- Time to read-out: 72 h or 96 h, depending on the cell culture
- Challenge: rucaparib 20 µM (about IC30) or vehicle, present until read-out
- Rucaparib or vehicle: Rucaparib
- Cell line: OCI-P5x (serous)
- Measurement: 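ATP luminescence measured at 72 or 96 h according to the culture, then normalised and expressed as percent viability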
- Reading the numbers: viability, normalised: higher = more viable cells remaining
- Rule for the call: 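a well counts as a hit if its normalised viability is under 80 percent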
- Meaning of the calls: active = viability under 80%; inactive = viability 80% or more

LTK, technical replicate 1
- viability, normalised (%): 65
- activity call: active

LTK, technical replicate 2
- viability, normalised (%): 60.3
- activity call: active

LTK, technical replicate 3
- viability, normalised (%): 55.8
- activity call: active

SHH, technical replicate 1
- viability, normalised (%): 48.6
- activity call: active

SHH, technical replicate 2
- viability, normalised (%): 60
- activity call: active

SHH, technical replicate 3
- viability, normalised (%): 47.8
- activity call: active

GSK3A, technical replicate 1
- viability, normalised (%): 102
- activity call: inactive

GSK3A, technical replicate 1
- viability, normalised (%): 61.2
- activity call: active

GSK3A, technical replicate 2
- viability, normalised (%): 63.7
- activity call: active

GSK3A, technical replicate 2
- viability, normalised (%): 110
- activity call: inactive

GSK3A, technical replicate 3
- viability, normalised (%): 89.7
- activity call: inactive

GSK3A, technical replicate 3
- viability, normalised (%): 68.2
- activity call: active

TIE1, technical replicate 1
- viability, normalised (%): 54.8
- activity call: active

TIE1, technical replicate 1
- viability, normalised (%): 104
- activity call: inactive

TIE1, technical replicate 2
- viability, normalised (%): 59.5
- activity call: active

TIE1, technical replicate 2
- viability, normalised (%): 102
- activity call: inactive

TIE1, technical replicate 3
- viability, normalised (%): 62.9
- activity call: active

TIE1, technical replicate 3
- viability, normalised (%): 101
- activity call: inactive

SMAD4, technical replicate 1
- viability, normalised (%): 50.6
- activity call: active

SMAD4, technical replicate 2
- viability, normalised (%): 51.5
- activity call: active

SMAD4, technical replicate 3
- viability, normalised (%): 47.8
- activity call: active

EIF2AK3, technical replicate 1
- viability, normalised (%): 75
- activity call: active

EIF2AK3, technical replicate 2
- viability, normalised (%): 79.9
- activity call: active

EIF2AK3, technical replicate 3
- viability, normalised (%): 60.1
- activity call: active

RAB32, technical replicate 1
- viability, normalised (%): 122
- activity call: inactive

RAB32, technical replicate 2
- viability, normalised (%): 101
- activity call: inactive

RAB32, technical replicate 3
- viability, normalised (%): 89.5
- activity call: inactive

RIOX2, technical replicate 1
- viability, normalised (%): 55.6
- activity call: active

RIOX2, technical replicate 2
- viability, normalised (%): 68.4
- activity call: active

RIOX2, technical replicate 3
- viability, normalised (%): 72.9
- activity call: active

EHMT1, technical replicate 1
- viability, normalised (%): 64.1
- activity call: active

EHMT1, technical replicate 2
- viability, normalised (%): 65
- activity call: active

EHMT1, technical replicate 3
- viability, normalised (%): 66.5
- activity call: active

Already shown: entries from further up.
LTK, technical replicate 1
- viability, normalised (%): 65
- activity call: active

LTK, technical replicate 2
- viability, normalised (%): 60.3
- activity call: active
